Data from publication PMC7819943, “Rice protein-binding microarrays: a tool to detect cis-acting elements near promoter regions in rice”.
Some of the results follow.

Chains of the proteins cited; added tags and fusions are not shown.
UniProt Q0JBA9, entry or part of it: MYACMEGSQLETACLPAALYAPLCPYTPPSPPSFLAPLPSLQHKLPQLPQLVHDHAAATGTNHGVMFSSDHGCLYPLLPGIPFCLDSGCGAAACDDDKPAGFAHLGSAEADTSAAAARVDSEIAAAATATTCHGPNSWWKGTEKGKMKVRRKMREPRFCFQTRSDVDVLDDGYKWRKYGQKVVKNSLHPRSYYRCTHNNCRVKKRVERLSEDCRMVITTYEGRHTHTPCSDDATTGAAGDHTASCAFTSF

What follows are sequences tested against OsWRKY34 (Oryza sativa, UniProt Q0JBA9 1-250) (assay: protein-binding microarray (RPBM); PBS, 2% BSA, 51.3 ng/ul salmon testes DNA, 50 uM zinc acetate, 200 nM TF, 25 C, 1 h; high values mean tight binding). Settings: protein: recombinant; tags: N-terminal polyhistidine and DsRed monomer fusion (pET32a); label: CyDye5-dUTP incorporated in the synthesized complementary strand; 3' TTTTT single-stranded linker to array surface; dsDNA, one strand shown.
Method in brief: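 Transcription factors were each fused at the N-terminus to a polyhistidine tag plus DsRed and expressed in E. coli BL21-CodonPlus before Ni–NTA purification. Binding to a double-stranded custom Agilent array was carried out with 200 nM protein at 25 °C for 1 h in PBS, 2% BSA, salmon testes DNA and 50 µM zinc acetate. The binding signal is per-feature fluorescence intensity, in arbitrary units, on an Axon 4000B scanner.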

Sequence | binding signal
ATTTACTCAGTCCAGAACCTTCGGCTAGCTGCTTGTTCTTCGGAGTCACCTAGTGCAG | 8900 fluorescence intensity (a.u.)
CACTGAAACAAAACCTGATTTGTCAATTGTCATGTACTCACGGAGTCACCTAGTGCAG | 8680 fluorescence intensity (a.u.)
CCGGAACACTCACCGCGCGGTTCCTCCAGACATCAACCACCGGAGTCACCTAGTGCAG | 8490 fluorescence intensity (a.u.)
CTCTCCGGGCCCCACCTGTCGCCCTGGGCCCGCATGTCATCGGAGTCACCTAGTGCAG | 9020 fluorescence intensity (a.u.)
CCAGATCCCGGATAGGCTCGCGTTTCTTGATTCGATGGTTCGGAGTCACCTAGTGCAG | 8640 fluorescence intensity (a.u.)
AGATGTTGGTGACCTGGTGCGGGCGGCGGCGGCGGGAAATCGGAGTCACCTAGTGCAG | 8860 fluorescence intensity (a.u.)
TTACGTGACGCTATGCTGGTTACACCACCCTTTCATCTACCGGAGTCACCTAGTGCAG | 8640 fluorescence intensity (a.u.)
TGACAACCTCTCATACTTGTCTCTCTCGCGCACTTCCACCCGGAGTCACCTAGTGCAG | 8080 fluorescence intensity (a.u.)
CACCTATCGTACACACTGTGTCTTGGAGTTCGTGTTACAGCGGAGTCACCTAGTGCAG | 8120 fluorescence intensity (a.u.)
TGCCCACGTGTCCGGCCCAATTAATTTCGTGAACCTTTGACGGAGTCACCTAGTGCAG | 12600 fluorescence intensity (a.u.)
GCGAGCGCCATCGATTGATCACTTTCAGGCCATTGGATCCCGGAGTCACCTAGTGCAG | 10000 fluorescence intensity (a.u.)
CTCTCTCTCCTAGAACCACCATTCAACCACTGTTTTCTCTCGGAGTCACCTAGTGCAG | 12200 fluorescence intensity (a.u.)
CCAACTCCGAACGCCTCTTCTTCTCCTCACCGCCGCCGAACGGAGTCACCTAGTGCAG | 9650 fluorescence intensity (a.u.)
TTTTTGCAGCGAGGTCCCTCAGGTTGCGTGGTATTTGCGTCGGAGTCACCTAGTGCAG | 8120 fluorescence intensity (a.u.)
TGCCCGGCTTGTTGCGCCTAACATTGTCATGAACCAGTACCGGAGTCACCTAGTGCAG | 8950 fluorescence intensity (a.u.)
GCCACTCATCGCCACCGCCGCCGCCTTTCTCTCATCCCAACGGAGTCACCTAGTGCAG | 8600 fluorescence intensity (a.u.)
TCGCTTGTGGTAGGTGTTGGGCACTTGGGGTTTGAAAGACCGGAGTCACCTAGTGCAG | 15800 fluorescence intensity (a.u.)
CTTTGCATCTCTTCTTTTCTTTCTTTTTTTTTTCTTTTCTCGGAGTCACCTAGTGCAG | 12100 fluorescence intensity (a.u.)
CCGGTCCGCGAGCGCGCTTGCTTCTTCTTCTCTATATATGCGGAGTCACCTAGTGCAG | 13100 fluorescence intensity (a.u.)
GTTTCTTGTCCCGTGTAGGAAAAATGCACTTCATTTCATCCGGAGTCACCTAGTGCAG | 8250 fluorescence intensity (a.u.)
TTTATGAAACTTTTAGGTTAGGTTTCATGGGTTTTCACTTCGGAGTCACCTAGTGCAG | 9210 fluorescence intensity (a.u.)
TGTGGATTGGTTTGGGGTGGATGCAGGCTGAGTAAAATAACGGAGTCACCTAGTGCAG | 14300 fluorescence intensity (a.u.)
ATCTTCGGGGTGGGTTACACATGCACAATTAACACGCTAGCGGAGTCACCTAGTGCAG | 12200 fluorescence intensity (a.u.)
TACGTTCATTTGATCATTTCATCTATTAGCATCGATTCTACGGAGTCACCTAGTGCAG | 10700 fluorescence intensity (a.u.)
ATCCGTGTTCTGTTCTTCTTGCGGAGCAAGCCTGCATTCCCGGAGTCACCTAGTGCAG | 8220 fluorescence intensity (a.u.)
GCTCCGCGCGCCGCCTGCCTCTCGGTCGACAGCACAGTAACGGAGTCACCTAGTGCAG | 8610 fluorescence intensity (a.u.)
TTACCAAACTGAAAATAAAAATGTGTGTTTTTTTTAATATCGGAGTCACCTAGTGCAG | 9410 fluorescence intensity (a.u.)

Sequence | binding signal
CTTCTCCTCTAGTCTGTGGTTGGCTGGCGATGGTGGCTTGCGGAGTCACCTAGTGCAG | 8820 fluorescence intensity (a.u.)
GCAATGTAATTTTAATACAAATGTGCTGTAAATTAAATCACGGAGTCACCTAGTGCAG | 8930 fluorescence intensity (a.u.)
CCTAGTTCGAAACTTCACCCCTTCTAATTATTTGATATTACGGAGTCACCTAGTGCAG | 8160 fluorescence intensity (a.u.)
GCTCGCTGACTGCGCCGAGTTTTATTCCCTACCGCCGCTCCGGAGTCACCTAGTGCAG | 9380 fluorescence intensity (a.u.)
CTGCCTACCTCTATACCTGCTATCTCCGTTCGATCCGGGTCGGAGTCACCTAGTGCAG | 8500 fluorescence intensity (a.u.)
ACGTCAGAGGATCCCTTTCCCCTAAATAGGTCTTATACTGCGGAGTCACCTAGTGCAG | 8540 fluorescence intensity (a.u.)
GCTAATTTGGGACATCTCAATCTCTCTTCCAATGGTTTTGCGGAGTCACCTAGTGCAG | 8700 fluorescence intensity (a.u.)
CAGTATGCCACTTCCACTGTCCAACCTTGTCTTGTTAAGACGGAGTCACCTAGTGCAG | 10300 fluorescence intensity (a.u.)
GGCCTGTTTGGTAGTGTTTTCGGAACGCTTTGATGATTTACGGAGTCACCTAGTGCAG | 9540 fluorescence intensity (a.u.)
AAAATTCGATAGGTTTTTACTAATTCTCTACCTTTTCTATCGGAGTCACCTAGTGCAG | 11100 fluorescence intensity (a.u.)
TAGGGTCATGGTTTAGATTTCGATCACATTTGAGGGTCACCGGAGTCACCTAGTGCAG | 8700 fluorescence intensity (a.u.)
ATTCTTTTCTCAATCAATAACAACTCTCCACCATTTAATTCGGAGTCACCTAGTGCAG | 8170 fluorescence intensity (a.u.)
CATACTTGGTTTTGATATACTGGGCTTTTCATGGACACTACGGAGTCACCTAGTGCAG | 8030 fluorescence intensity (a.u.)
AAACGGCGCAATCTGTGTAATTAGTTATTTTTTCGTCTATCGGAGTCACCTAGTGCAG | 8140 fluorescence intensity (a.u.)
TCATGCATACACATTATGATTAGCACTTTCCATTTTCTATCGGAGTCACCTAGTGCAG | 8160 fluorescence intensity (a.u.)
CGTCGTCGTGTACCACGTCCTCCACCGCCGGCTTCCCGCGCGGAGTCACCTAGTGCAG | 14100 fluorescence intensity (a.u.)
GACGAATGGTCAAACGTTGGATAAAAAGTCAACGGCGTCACGGAGTCACCTAGTGCAG | 12000 fluorescence intensity (a.u.)
TACACGAACACGATCAATCACCTGATTCCTTCAACTGTTTCGGAGTCACCTAGTGCAG | 10200 fluorescence intensity (a.u.)
GGTATACGTTTGACCATTCGTCTTATTCAAAAAATTTATGCGGAGTCACCTAGTGCAG | 10200 fluorescence intensity (a.u.)
AAAGGACCAGTCGTCTTATTTCTAGCCACTTACCTCCTAACGGAGTCACCTAGTGCAG | 10500 fluorescence intensity (a.u.)
GCACCTCTTGTATCATCAGGTGCACAAGCTGTGCCAAAAACGGAGTCACCTAGTGCAG | 9420 fluorescence intensity (a.u.)
AGGGTAATAACCCAGCCTGTGTTGTGTGTGTTGGTTTAGACGGAGTCACCTAGTGCAG | 9660 fluorescence intensity (a.u.)
GAATTTCGTTCTGTTTCACCATTCATCTCGAATATTTCCACGGAGTCACCTAGTGCAG | 12000 fluorescence intensity (a.u.)
GCCGCTTCCGCTTGCGTGCCCTCGTCGCCGTCGAATCGCTCGGAGTCACCTAGTGCAG | 10000 fluorescence intensity (a.u.)
GGGGCTGGGGCACATAACCAACACTGCACAATGAGTCTTGCGGAGTCACCTAGTGCAG | 9070 fluorescence intensity (a.u.)
AAATGGTTTTGGTCTAGGGATCGTGCTTAGCTATTGGTGGCGGAGTCACCTAGTGCAG | 8080 fluorescence intensity (a.u.)
TGTGTGTGTTAACTTAATTCCTGTCAGCAACATTTCCTTTCGGAGTCACCTAGTGCAG | 8820 fluorescence intensity (a.u.)

Part of the list above, tab-delimited:
Sequence	binding signal
ATTCTTTTCTCAATCAATAACAACTCTCCACCATTTAATTCGGAGTCACCTAGTGCAG	8170 fluorescence intensity (a.u.)
CATACTTGGTTTTGATATACTGGGCTTTTCATGGACACTACGGAGTCACCTAGTGCAG	8030 fluorescence intensity (a.u.)
AAACGGCGCAATCTGTGTAATTAGTTATTTTTTCGTCTATCGGAGTCACCTAGTGCAG	8140 fluorescence intensity (a.u.)
TCATGCATACACATTATGATTAGCACTTTCCATTTTCTATCGGAGTCACCTAGTGCAG	8160 fluorescence intensity (a.u.)
